From article PMC6978697
No constants are given. Whether binding was seen depends on the method and setting. In cells and extracts the contact can be indirect. Some binding calls cover weakened binding; strength is not graded here.

Amino acid sequences for entries named in this document (tags omitted).
UniProt P49407: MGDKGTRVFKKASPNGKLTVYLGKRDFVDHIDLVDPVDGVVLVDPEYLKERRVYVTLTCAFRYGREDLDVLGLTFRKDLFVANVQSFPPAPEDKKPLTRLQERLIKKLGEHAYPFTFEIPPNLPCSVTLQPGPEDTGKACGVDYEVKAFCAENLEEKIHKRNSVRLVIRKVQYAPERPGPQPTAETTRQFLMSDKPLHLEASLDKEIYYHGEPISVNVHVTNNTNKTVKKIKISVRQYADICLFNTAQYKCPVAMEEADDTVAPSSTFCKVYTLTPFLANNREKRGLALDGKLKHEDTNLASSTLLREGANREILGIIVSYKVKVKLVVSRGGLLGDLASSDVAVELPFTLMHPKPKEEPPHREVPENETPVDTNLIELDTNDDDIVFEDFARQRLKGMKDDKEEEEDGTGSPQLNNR

Target: human δ opioid receptor–Renilla luciferase (DOPr-Rluc) (human) (UniProt P41143)
Test: FRET or BRET; BRET2 in live HEK293 cells co-transfected with human DOPr-Rluc (donor) and arrestin-2-GFP or arrestin-3-GFP (acceptor); read 10 min after agonist (SNC80, PN6047, DADLE or ARM390) at 37°C with 5 µM coelenterazine 400a; also after preincubation with compound 101 (GRK2/3 inhibitor), which attenuated recruitment

binding: binds
Substance: arrestin-2 Green Fluorescent Protein construct (from UniProt P49407 1-418)
